Reference: paper PMC10922812 (Antiviral research, 2024)

What was measured:
Vero cells = assay: MTS cell viability assay, Vero cells; format: cell-based, African green monkey; conditions: Vero 48 h, vs DMSO control
RPTEC = assay: MTS cell viability assay, RPTEC; format: cell-based, human; conditions: RPTEC 48 h, vs DMSO control
HEK-2C cells = assay: MTS cell viability assay, HEK-2C cells; format: cell-based; conditions: HEK-2C 48 h, vs DMSO control
SVGA cells = assay: MTS cell viability assay, SVGA cells; format: cell-based, human; conditions: SVGA 48 h, vs DMSO control

In the case of `COC(=O)C1=C(C)NC(C)=C(C(=O)OC)C1c1ccccc1[N+](=O)[O-]` [Nifedipine], the “Concentration with % Viability ≥ 85%” value (Vero cells) is reported as 100 µM, the “Concentration with % Viability ≥ 95%” value (Vero cells) is reported as 75 µM and the “Concentration with % Viability ≥ 100%” value (Vero cells) is reported as 20 µM. The “Concentration with % Viability ≥ 80%” value (RPTEC) was 100 µM, the “Concentration with % Viability ≥ 85%” value (RPTEC) was 50 µM and the “Concentration with % Viability ≥ 95%” value (HEK-2C cells) was 100 µM. The “Concentration with % Viability ≥ 100%” value (HEK-2C cells) was 50 µM, the “Concentration with % Viability < 80%” value (SVGA cells) was 200 µM and the “Concentration with % Viability ≥ 80%” value (SVGA cells) was 150 µM. For the same compound, the “Concentration with % Viability ≥ 85%” value (SVGA cells) was 75 µM.
